± gives the standard deviation of the averaged measurements. Only a part is listed here, and it is no random draw. Most values lie within the scatter of the assay; repeated measurements hardly agree.
System: FaDu
Assay: mitochondrial oxygen consumption rate normalised to cell number, Z score over the library; higher = higher oxygen consumption (negative = OCR reduction)
Conditions: treatment time 24 h, assay medium: 5 mM galactose, 5 mM pyruvate, 4 mM glutamine
Description: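 Primary screen: FaDu cells were incubated 24 h with Pharmakon 1600 / TDI oncology set compounds at 2 or 10 uM. Mitochondrial-specific OCR (basal minus 2 uM antimycin A) was measured on a Seahorse XF96 in assay medium with 5 mM galactose, 5 mM pyruvate and 4 mM glutamine, then corrected for Hoechst cell number and expressed as a Z score […]. Compounds that cut cell number by >66% were excluded. Two repeats.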

| Compound | mitochondrial oxygen consumption rate normalised (2 µM) | mitochondrial oxygen consumption rate normalised (10 µM) |
| --- | --- | --- |
| CCOCCOc1ccccc1C(N)=O | 0.421 ± 0.9 | 1.14 ± 0.52 |
| CCC1=C(C)CN(C(=O)NCCc2ccc(S(=O)(=O)NC(=O)N[C@H]3CC[C@H](C)CC3)cc2)C1=O | -0.461 ± 0.23 | 0.0168 ± 0.78 |
| CCCCOc1cc(C(=O)NCCN(CC)CC)c2ccccc2n1 | -0.109 ± 0.61 | – |
| CC[C@H]1OC(=O)[C@H](C)C(=O)[C@H](C)[C@@H](O[C@@H]2O[C@H](C)C[C@H](N(C)C)[C@H]2O)[C@](C)(OC)C[C@@H](C)C(=O)[C@H](C)[C@H]2N(CCCCn3cnc(-c4cccnc4)c3)C(=O)O[C@]12C | -0.211 ± 1.4 | – |
| CCS(=O)(=O)CCn1c([N+](=O)[O-])cnc1C | 0.524 ± 0.26 | – |
| O=C1CCc2cc(OCCCCc3nnnn3C3CCCCC3)ccc2N1 | -0.27 ± 0.57 | – |
| C[C@]12C=CC(=O)C=C1CC[C@@H]1[C@@H]2[C@@H](O)C[C@@]2(C)[C@H]1CC[C@]2(O)C(=O)COC(=O)CCC(=O)O | 0.573 ± 0.62 | – |
| COC(=O)[C@@H]1[C@H]2C[C@H]3c4[nH]c5ccccc5c4CCN3C[C@@H]2CC[C@@H]1O | 0.807 ± 0.13 | – |
| CCCCCCc1ccc(O)cc1O | -0.207 ± 0.67 | – |
| CC1(C)NC(=O)N(c2ccc([N+](=O)[O-])c(C(F)(F)F)c2)C1=O | -0.121 ± 0.49 | – |
| CC(=O)N[C@@H]([C@@H](O)[C@H](O)[C@H](O)CO)[C@@H](O)CC(=O)C(=O)O | 0.031 ± 1.1 | – |
| COC(=O)C(N)CS (stereo not given) | -0.712 ± 0.15 | 0.244 ± 0.32 |
| CC(N)C12CC3CC(CC(C3)C1)C2 (stereo not given) | 0.462 ± 0.27 | – |
| Nc1cc(-c2ccncc2)c[nH]c1=O | 0.123 ± 0.46 | – |
| C[C@H]1C[C@@H]2[C@H]([C@@H](O)C[C@@]3(C)[C@H]2CC[C@]3(O)C(=O)COC(=O)CCC(=O)O)[C@@]2(C)C=CC(=O)C=C12 | -0.0934 ± 0.12 | – |
| CN(CCOc1ccc(CC2SC(=O)NC2=O)cc1)c1ccccn1 (stereo not given) | -0.465 ± 0.65 | – |
| CN(C)CC[C@@H](c1ccc(Cl)cc1)c1ccccn1 | 0.017 ± 0.087 | – |
| OC(CCN1CCCCC1)(c1ccccc1)C1CCCCC1 (stereo not given) | 0.123 ± 0.33 | – |
| N=C(N)N/N=C/c1c(Cl)cccc1Cl | -0.0991 ± 0.16 | – |
| Cc1ccc2c(Cl)cc(Cl)c(O)c2n1 | -1.22 ± 0.57 | – |
| O=C(OCc1ccccc1)c1ccccc1 | 0.896 ± 0.32 | – |
| CN(C)CCOC(=O)COc1ccc(Cl)cc1 | -0.626 ± 0.76 | – |
| OC[C@H]1O[C@@H](O[C@@H]2[C@@H](CO)OC(O)(CO)[C@H]2O)[C@H](O)[C@@H](O)[C@H]1O (mixture of isomers) | -0.775 ± 0.29 | 1.09 ± 0.68 |
| COc1ccc(-c2cc(C(F)F)nn2-c2ccc(S(N)(=O)=O)cc2)cc1F | -0.215 ± 1 | – |

| Compound | mitochondrial oxygen consumption rate normalised (2 µM) | mitochondrial oxygen consumption rate normalised (10 µM) |
| --- | --- | --- |
| N[C@@H](C(=O)N[C@@H]1C(=O)N2C(C(=O)O)=C(Cl)CS[C@H]12)c1ccccc1 | -0.098 ± 0.19 | – |
| COc1ccc(C(=O)NCc2ccc(OCCN(C)C)cc2)cc1OC | -0.0508 ± 1.3 | – |
| NC(N)=O | 0.147 ± 0.15 | – |
| Cn1c([N+](=O)[O-])cnc1COC(N)=O | 0.000861 ± 0.91 | – |
| CN(C)[C@@H]1C(O)=C(C(N)=O)C(=O)[C@@]2(O)C(O)=C3C(=O)c4c(O)ccc(Cl)c4[C@@H](O)[C@H]3C[C@@H]12 | 0.441 ± 1.1 | – |
| CCc1cccc2c3c([nH]c12)C(CC)(CC(=O)O)OCC3 (stereo not given) | 1.44 ± 0.9 | – |
| Cc1noc(NS(=O)(=O)c2ccc(N)cc2)c1C | -1.15 ± 0.13 | – |
| CCCCC(=O)O[C@]1(C(=O)CO)CC[C@H]2[C@@H]3CCC4=CC(=O)CC[C@]4(C)[C@H]3[C@@H](O)C[C@@]21C | 0.0799 ± 0.29 | – |
| C[C@]12CC[C@@H]3c4ccc(O)cc4CC[C@H]3[C@@H]1C[C@@H](O)[C@@H]2O | 0.802 ± 0.44 | -0.347 ± 0.41 |
| CC(Oc1c(Cl)cccc1Cl)C1=NCCN1 (stereo not given) | 1.6 ± 0.57 | – |
| CC1=C(CC(=O)O)c2cc(F)ccc2/C1=C\c1ccc([S+](C)[O-])cc1 (stereo not given) | -0.844 ± 0.24 | – |
| Cn1nnnc1SCC1=C(C(=O)O)N2C(=O)[C@@H](NC(=O)[C@H](OC=O)c3ccccc3)[C@H]2SC1 | 0.421 ± 0.49 | 0.0513 ± 0.34 |
| CCOC(=O)[C@H](CCc1ccccc1)N[C@@H](C)C(=O)N1CCC[C@H]1C(=O)O | 0.482 ± 0.82 | – |
| CO/N=C(\C(=O)N[C@@H]1C(=O)N2C(C(=O)O)=C(C[N+]3(C)CCCC3)CS[C@H]12)c1csc(N)n1 | 0.126 ± 0.21 | – |
| O=S(=O)(O)CCCS(=O)(=O)O | 0.567 ± 1.1 | – |
| CC(=O)Nc1ccc(O)cc1 | 0.246 ± 0.076 | – |
| CC(=O)Oc1c(C)c(C)c2c(c1C)CCC(C)(CCCC(C)CCCC(C)CCCC(C)C)O2 (stereo not drawn) [alpha-TOCHOPHERYL ACETATE] | 0.685 ± 0.49 | -0.281 ± 0.21 |
| Nc1cccc2c1CN(C1CCC(=O)NC1=O)C2=O (stereo not given) [Lenalidomide] | 0.752 ± 0.3 | – |
| CCCCC(CC)CN=C(N)N=C(N)NCCCCCCNC(N)=NC(N)=NCC(CC)CCCC (stereo not given) | -1.08 ± 0.56 | – |
| COc1ccc2[nH]c([S+]([O-])Cc3ncc(C)c(OC)c3C)nc2c1 (stereo not given) | 0.168 ± 0.089 | – |
| CC(C)COC(=O)c1ccc(N)cc1 | -0.241 ± 0.33 | – |
| Cc1ccccc1N1C(=O)c2cc(S(N)(=O)=O)c(Cl)cc2NC1C (stereo not given) | -0.0812 ± 0.29 | – |
| Cc1cc(-n2c(=O)[nH]c(=O)n(C)c2=O)ccc1Oc1ccc(SC(F)(F)F)cc1 | -0.609 ± 0.28 | – |
| OCCOCCN1CCN(C(c2ccccc2)c2ccc(Cl)cc2)CC1 (stereo not given) | -0.481 ± 0.9 | – |

Grouped by structure: those above with an aryl thioether with sulfur outside any ring

| Compound | mitochondrial oxygen consumption rate normalised (2 µM) | mitochondrial oxygen consumption rate normalised (10 µM) |
| --- | --- | --- |
| Cn1nnnc1SCC1=C(C(=O)O)N2C(=O)[C@@H](NC(=O)[C@H](OC=O)c3ccccc3)[C@H]2SC1 | 0.421 ± 0.49 | 0.0513 ± 0.34 |
| Cc1cc(-n2c(=O)[nH]c(=O)n(C)c2=O)ccc1Oc1ccc(SC(F)(F)F)cc1 | -0.609 ± 0.28 | – |

Reference: the supplement of paper PMC4962491
